Experimental data: US12642857B2, “Degradation of AKT by conjugation of ATP-competitive AKT inhibitor GDC-0068 with E3 ligase ligands and methods of use” (DANA-FARBER CANCER INSTITUTE, INC., priority 2019, dated 2026)
“Also recorded” adds a separate entry of the source. For at least one compound, name, drawing or mass did not settle the structure.

Legend:
Type in all cases: cell-based, human
AKT isoforms (pan-AKT) = assay: Immunoblot of AKT levels over time and after washout in T47D and MDA-MB-468 cells
AKT1, AKT2 and AKT3 [1] = assay: Immunoblot of AKT isoform degradation in MDA-MB-468 cells
Protocol: MDA-MB-468 (human breast cancer cell line) cells were maintained in RPMI 1640 (Wisent Bioproducts) supplemented with 10% FBS (Thermo Fisher Scientific) and MCF10A (human breast epithelial cell line) cells were maintained in Dulbecco's modified Eagle's medium (DMEM)/Ham's F12 (Wisent Bioproducts) supplemented with 5% equine serum (Fisher), insulin (10 μg/ml) (Life Technologies), hydrocortisone (500 ng/ml) (Sigma-Aldrich®), epidermal growth factor (20 ng/ml) (R&D Systems), and cholera toxin (100 ng/ml) (List Biological Lab). MDA-MB-468 and MCF10A cells were seeded at 250,000 cells/mL and 200,000 cells/mL, respectively. The following day cells were treated with inventive bifunctional compounds. After 24 hours, cells were washed with phosphate-buffered saline at 4° C. and lysed in radioimmunoprecipitation assay (RIPA) buffer (150 mM Tris-HCl, 150 mM NaCl, 0.5% (w/v) sodium deoxycholate, 1% (v/v) NP-40, pH 7.5) containing 0.1% (w/v) sodium dodecyl sulfate, 1 mM sodium pyrophosphate, 20 mM sodium fluoride, 50 nM calyculin, and 0.5% (v/v) protease inhibitor cocktail (Sigma-Aldrich®)). Cell extracts were precleared by centrifugation at 14,000 rpm for 10 minutes at 4° C. The Bio-Rad DC protein assay was used to assess protein concentration, and sample concentration was normalized using SDS sample buffer. Lysates were resolved on acrylamide gels by SDS-polyacrylamide gel electrophoresis and electrophoretically transferred to nitrocellulose membrane (BioRad) at 100 volts for 90 minutes. Membranes were blocked in 5% (w/v) nonfat dry milk or 5% (w/v) bovine serum albumin in tris-buffered saline (TBS) buffer for 1 hour then incubated with specific primary antibodies diluted in blocking buffer at 4° C. overnight, shaking. Anti-AKT1 (CST2938), anti-AKT2 (CST3063), anti-AKT3 (CST8018), anti-phospho-Thr246-PRAS40 (CST2997), anti-PRAS40 (CST2691), and anti-Vinculin (CST13901) antibodies were purchased from Cell Signaling Technology®. Membranes were washed three times in TBS-T and incubated with fluorophore-conjugated secondary antibodies (LI-COR®) for 1 hour at room temperature. Membranes were washed three times in TBS-T and imaged using an Odyssey® CLx (LI-COR®). Images were stored and analyzed using ImageStudio™ (LI-COR®) software.
Cells were plated at 250,000 cells per mL (MDA-MB-468, MOLT4, IGROV1, PC3, and Jurkat) or 200,000 cells per mL (T47D) in 2 mL per well of RPMI or DMEM media with 10% serum in 6-well treated tissue culture plates (Greiner, Cat #TCG-657160) or 60 mm treated tissue culture plates (Corning®, Cat #430166) and incubated overnight. The next day, cells were treated with the indicated compounds at the appropriate concentration and protein lysates were harvested at the times specified.
Cells were washed once in 1×PBS then lysed in RIPA buffer (150 mM Tris-HCl, 150 mM NaCl, 0.5% (w/v) sodium deoxycholate, 1% (v/v) NP-40, pH 7.5) containing 0.1% (w/v) sodium dodecyl sulfate, 1 mM sodium pyrophosphate, 20 mM sodium fluoride, 50 nM calyculin, and 0.5% (v/v) protease inhibitor cocktail (Sigma-Aldrich®) for 15 minutes. Cell extracts were precleared by centrifugation at 14,000 rpm for 10 minutes at 4° C. The Bio-Rad DC protein assay was used to assess protein concentration, and sample concentration was normalized using SDS sample buffer. Lysates were resolved on acrylamide gels by SDS-polyacrylamide gel electrophoresis and electrophoretically transferred to nitrocellulose membrane (BioRad) at 100 volts for 90 minutes. Membranes were blocked in 5% (w/v) nonfat dry milk in tris-buffered saline (TBS) buffer for 1 hour then incubated with specific primary antibodies diluted in 5% (w/v) nonfat dry milk in TBS-T (TBS with 0.05% Tween®-20) at 4° C. overnight, shaking. The next day, membranes were washed with TBS-T then incubated for 1 hour at room temperature with fluorophore-conjugated secondary antibodies (LI-COR® Biosciences). The membrane was washed again with TBS-T then imaged with a LI-COR® Odyssey® CLx Imaging System (LI-COR® Biosciences). […]

[2] = tested on: phospho-PRAS40 (T246), phospho-GSK3I3 (S9), phospho-S6 (S240/244); assay: Immunoblot of downstream signaling (pPRAS40, pGSK3, pS6) in T47D and MDA-MB-468 cells
Protocol: Solid vertical white line indicates samples run on separate gels. […] Solid vertical white line indicates samples run on separate gels. Cells were plated at 250,000 cells per mL (MDA-MB-468, MOLT4, IGROV1, PC3, and Jurkat) or 200,000 cells per mL (T47D) in 2 mL per well of RPMI or DMEM media with 10% serum in 6-well treated tissue culture plates (Greiner, Cat #TCG-657160) or 60 mm treated tissue culture plates (Corning®, Cat #430166) and incubated overnight. The next day, cells were treated with the indicated compounds at the appropriate concentration and protein lysates were harvested at the times specified. Cells were washed once in 1×PBS then lysed in RIPA buffer (150 mM Tris-HCl, 150 mM NaCl, 0.5% (w/v) sodium deoxycholate, 1% (v/v) NP-40, pH 7.5) containing 0.1% (w/v) sodium dodecyl sulfate, 1 mM sodium pyrophosphate, 20 mM sodium fluoride, 50 nM calyculin, and 0.5% (v/v) protease inhibitor cocktail (Sigma-Aldrich®) for 15 minutes. Cell extracts were precleared by centrifugation at 14,000 rpm for 10 minutes at 4° C. The Bio-Rad DC protein assay was used to assess protein concentration, and sample concentration was normalized using SDS sample buffer. Lysates were resolved on acrylamide gels by SDS-polyacrylamide gel electrophoresis and electrophoretically transferred to nitrocellulose membrane (BioRad) at 100 volts for 90 minutes. Membranes were blocked in 5% (w/v) nonfat dry milk in tris-buffered saline (TBS) buffer for 1 hour then incubated with specific primary antibodies diluted in 5% (w/v) nonfat dry milk in TBS-T (TBS with 0.05% Tween®-20) at 4° C. overnight, shaking. The next day, membranes were washed with TBS-T then incubated for 1 hour at room temperature with fluorophore-conjugated secondary antibodies (LI-COR® Biosciences). The membrane was washed again with TBS-T then imaged with a LI-COR® Odyssey® CLx Imaging System (LI-COR® Biosciences).

[3] = tested on: MDA-MB-468 and HCC1937 cells; assay: Growth inhibition rate (GR) assay in MDA-MB-468 and HCC1937 cells; details: 72-hour treatment (FIG. 6E-6F)
MOLT4 cells = assay: Multiplexed mass spectrometry-based proteomic analysis in MOLT4 cells; details: 250 nM, 4 hours, vs DMSO (FIG. 5D)
AKT1, AKT2 and AKT3 [4] = assay: Immunoblot of AKT isoform degradation in MCF10A cells; details: 24-hour treatment
Protocol: MDA-MB-468 (human breast cancer cell line) cells were maintained in RPMI 1640 (Wisent Bioproducts) supplemented with 10% FBS (Thermo Fisher Scientific) and MCF10A (human breast epithelial cell line) cells were maintained in Dulbecco's modified Eagle's medium (DMEM)/Ham's F12 (Wisent Bioproducts) supplemented with 5% equine serum (Fisher), insulin (10 μg/ml) (Life Technologies), hydrocortisone (500 ng/ml) (Sigma-Aldrich®), epidermal growth factor (20 ng/ml) (R&D Systems), and cholera toxin (100 ng/ml) (List Biological Lab). MDA-MB-468 and MCF10A cells were seeded at 250,000 cells/mL and 200,000 cells/mL, respectively. The following day cells were treated with inventive bifunctional compounds. After 24 hours, cells were washed with phosphate-buffered saline at 4° C. and lysed in radioimmunoprecipitation assay (RIPA) buffer (150 mM Tris-HCl, 150 mM NaCl, 0.5% (w/v) sodium deoxycholate, 1% (v/v) NP-40, pH 7.5) containing 0.1% (w/v) sodium dodecyl sulfate, 1 mM sodium pyrophosphate, 20 mM sodium fluoride, 50 nM calyculin, and 0.5% (v/v) protease inhibitor cocktail (Sigma-Aldrich®)). Cell extracts were precleared by centrifugation at 14,000 rpm for 10 minutes at 4° C. The Bio-Rad DC protein assay was used to assess protein concentration, and sample concentration was normalized using SDS sample buffer. […] Images were stored and analyzed using ImageStudio™ (LI-COR®) software. […]

[5] = T47D and MDA-MB-468 cells, 250 nM (FIG. 7C-7D)
[6] = T47D or MDA-MB-468 cells, 12 h treatment at 250 nM, then washout (FIG. 7E-7F)

`C[C@@H]1C[C@@H](O)c2ncnc(N3CCN(C(=O)[C@H](CNCCCCCCCCCCc4cccc5c4CN(C4CCC(=O)NC4=O)C5=O)c4ccc(Cl)cc4)CC3)c21` (stereo partly drawn) [Compound 10, 3-(4-(10-(((S)-2-(4-chlorophenyl)-3-(4-((5R,7R)-7-hydroxy-5-methyl-6,7-dihydro-5H-cyclopenta[d]pyrimidin-4-yl)piperazin-1-yl)-3-oxopropyl)amino)decyl)-1-oxoisoindolin-2-yl)piperidine-2,6-dione] was tested, and the “Duration of destabilization of all three AKT isoforms” value (AKT isoforms (pan-AKT); [5]) was “at least 96 hours”, the “AKT levels after compound washout” value (AKT isoforms (pan-AKT); [6]) was “sustained AKT degradation and inhibition of downstream signaling effects for up to 96 hours, even after compound washout; also recorded: no detectable rebound of AKT levels for up to 96 h after washout” and the “AKT degradation on co-treatment with excess GDC-0068” value (AKT1, AKT2 and AKT3 [1]; MDA-MB-468, 12-hour co-treatment, compound 10 250 nM + GDC-0068 (10 mM) (FIG. 5C)) was “prevented AKT degradation”. The “AKT destabilization on co-treatment with MLN-4924” value (AKT1, AKT2 and AKT3 [1]; MDA-MB-468, 12-hour co-treatment, compound 10 250 nM + MLN-4924 (1 mM) (FIG. 5C)) was “prevented AKT destabilization”, the “AKT destabilization on co-treatment with bortezomib” value (AKT1, AKT2 and AKT3 [1]; MDA-MB-468, 12-hour co-treatment, compound 10 250 nM + bortezomib (0.5 mM) (FIG. 5C)) was “prevented AKT destabilization” and the “AKT degradation on co-treatment with excess lenalidomide” value (AKT1, AKT2 and AKT3 [1]; MDA-MB-468, 12-hour co-treatment, compound 10 250 nM + lenalidomide (10 mM) (FIG. 5C)) was “prevented AKT degradation”. The “Time to partial degradation of all AKT isoforms” value (AKT1, AKT2 and AKT3 [1]; MDA-MB-468 cells, 250 nM (FIG. 5B)) was at most 4 h, the “AKT abundance over time” value (AKT1, AKT2 and AKT3 [1]; MDA-MB-468 cells, 250 nM, out to 24 h (FIG. 5B)) was “progressive loss of AKT abundance out to 24 h” and the “Degradation of all three AKT isoforms” value (AKT1, AKT2 and AKT3 [1]; MDA-MB-468 cells, 12-hour treatment (FIG. 5A)) was “potent degradation of all three AKT isoforms in a dose-dependent manner”. For the same compound, the “Degradation of AKT isoforms” value (AKT1, AKT2 and AKT3 [1]; MDA-MB-468 cells, 24-hour treatment, immunoblot) was “degradation of all three AKT isoforms”, the “Duration of reduction of pPRAS40 levels” value [2, 5] was “up to 96 hours” and the “Phosphorylation of PRAS40, GSK3I3 and S6” value ([2]; T47D and MDA-MB-468 cells, 250 nM, 24 hours (FIG. 7A-7B)) was “significantly reduced phosphorylation of PRAS40, GSK3I3, and S6”. The “pPRAS40 levels after compound washout” value [2, 6] was “potently suppressed levels of pPRAS40 for up to 96 hours after washout”, the “Anti-proliferative effects compared with GDC-0068” value [3] was “enhanced anti-proliferative effects” and the “Difference in GR50 values between compound 10 and compound 10-Me” value [3] was “no apparent differences in GR50 values”. The “Change in relative protein abundance (degrader selectivity)” value (MOLT4 cells) was “significant downregulation of all three AKT isoforms, as well as RNF166” and the “Degradation of AKT isoforms” value (AKT1, AKT2 and AKT3 [4]) was “degradation of all three AKT isoforms”.
